Experimental data as given in publication PMC5404329.

Protein sequences, listed by entry. Tags and fused reporters are not part of them. Lines headed by an entry give the natural chain unless they say otherwise; changes in a name come on top.
UniProt P09038: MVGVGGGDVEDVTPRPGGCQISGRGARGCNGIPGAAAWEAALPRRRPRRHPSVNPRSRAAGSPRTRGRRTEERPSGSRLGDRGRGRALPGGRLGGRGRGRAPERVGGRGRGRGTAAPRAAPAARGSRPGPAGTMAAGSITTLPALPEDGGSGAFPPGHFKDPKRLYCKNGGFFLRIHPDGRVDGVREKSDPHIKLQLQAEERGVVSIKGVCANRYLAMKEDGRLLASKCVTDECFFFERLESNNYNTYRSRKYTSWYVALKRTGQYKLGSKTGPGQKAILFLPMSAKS

T1: Glypican-2 (human (endogenous in hESC-derived neural progenitor cells)) (UniProt Q8N158)
T1 sequence: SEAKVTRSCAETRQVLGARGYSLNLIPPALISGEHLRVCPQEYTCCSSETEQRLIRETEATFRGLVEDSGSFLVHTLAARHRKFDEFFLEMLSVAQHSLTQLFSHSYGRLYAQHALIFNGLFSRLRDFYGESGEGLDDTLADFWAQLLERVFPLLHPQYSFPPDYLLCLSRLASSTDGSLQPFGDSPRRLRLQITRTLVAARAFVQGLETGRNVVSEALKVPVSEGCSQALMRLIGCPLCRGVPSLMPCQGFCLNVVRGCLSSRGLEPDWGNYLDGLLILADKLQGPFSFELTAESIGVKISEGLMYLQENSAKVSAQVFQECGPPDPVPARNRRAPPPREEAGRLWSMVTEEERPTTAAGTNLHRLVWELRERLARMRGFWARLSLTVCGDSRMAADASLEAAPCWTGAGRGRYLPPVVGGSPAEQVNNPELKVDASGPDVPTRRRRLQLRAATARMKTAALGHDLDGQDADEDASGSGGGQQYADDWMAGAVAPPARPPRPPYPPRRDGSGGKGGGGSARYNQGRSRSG


Target: T1, Glypican-2 (human (endogenous in hESC-derived neural progenitor cells))
Test: affinity purification with mass spectrometry; immunocompetitive capture mass spectrometry (ICC-MS): anti-Gpc2 resin (clone 2/43) incubated 1 h with lysates of 21-day differentiated NPCs (850 ug total protein per condition), lysates pre-incubated with 0, 100, 250, 500 and 1000 ng free anti-Gpc2 antibody, in triplicate; eluates on SDS-PAGE …

Row | Molecule | binding
1 | Fibroblast Growth Factor 2 (from UniProt P09038) (ligand) | binds
2 | GSLG1 (receptor, UniProt Q92896 30-1179) LPGQGVHSQGQGPGANFVSFVGQAGGGGPAGQQLPQLPQSSQLQQQQQQQQQQQQPQPPQPPFPAGGPPARRGGAGAGGGWKLAEEESCREDVTRVCPKHTWSNNLAVLECLQDVREPENEISSDCNHLLWNYKLNLTTDPKFESVAREVCKSTITEIKECADEPVGKGYMVSCLVDHRGNITEYQCHQYITKMTAIIFSDYRLICGFMDDCKNDINILKCGSIRLGEKDAHSQGEVVSCLEKGLVKEAEEREPKIQVSELCKKAILRVAELSSDDFHLDRHLYFACRDDRERFCENTQAGEGRVYKCLFNHKFEESMSEKCREALTTRQKLIAQDYKVSYSLAKSCKSDLKKYRCNVENLPRSREARLSYLLMCLESAVHRGRQVSSECQGEMLDYRRMLMEDFSLSPEIILSCRGEIEHHCSGLHRKGRTLHCLMKVVRGEKGNLGMNCQQALQTLIQETDPGADYRIDRALNEACESVIQTACKHIRSGDPMILSCLMEHLYTEKMVEDCEHRLLELQYFISRDWKLDPVLYRKCQGDASRLCHTHGWNETSEFMPQGAVFSCLYRHAYRTEEQGRRLSRECRAEVQRILHQRAMDVKLDPALQDKCLIDLGKWCSEKTETGQELECLQDHLDDLVVECRDIVGNLTELESEDIQIEALLMRACEPIIQNFCHDVADNQIDSGDLMECLIQNKHQKDMNEKCAIGVTHFQLVQMKDFRFSYKFKMACKEDVLKLCPNIKKKVDVVICLSTTVRNDTLQEAKEHRVSLKCRRQLRVEELEMTEDIRLEPDLYEACKSDIKNFCSAVQYGNAQIIECLKENKKQLSTRCHQKVFKLQETEMMDPELDYTLMRVCKQMIKRFCPEADSKTMLQCLKQNKNSELMDPKCKQMITKRQITQNTDYRLNPMLRKACKADIPKFCHGILTKAKDDSELEGQVISCLKLRYADQRLSSDCEDQIRIIIQESALDYRLDPQLQLHCSDEISSLCAEEAAAQEQTGQVEECLKVNLLKIKTELCKKEVLNMLKESKADIFVDPVLHTACALDIKHHCAAITPGRGRQMSCLMEALEDKRVRLQPECKKRLNDRIEMWSYAAKVAPADGFSDLAMQVMTSPSKNYILSVISGSICILFLIGLMCGRITKRVTRELKDR | binds

No constants are given. Whether binding was seen depends on the method and setting. In cells and extracts the contact can be indirect. Here binding means that the protein was enriched with, or labelled near, the bait; the list need not be complete.
